For one molecule, binding results are on record in paper PMC11425893.

By UniProt entry, the sequences of proteins in these tests, tags left out.
UniProt P09528: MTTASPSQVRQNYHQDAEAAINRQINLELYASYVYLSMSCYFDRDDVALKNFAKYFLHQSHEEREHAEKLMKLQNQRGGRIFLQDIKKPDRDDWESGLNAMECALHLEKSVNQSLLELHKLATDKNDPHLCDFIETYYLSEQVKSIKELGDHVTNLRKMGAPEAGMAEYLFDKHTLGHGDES

No constants are given. Whether binding was seen depends on the method and setting. Binding seen in cells or lysates may run through a third protein. Some binding calls cover weakened binding; strength is not graded here.

In this assay the target is ferritin heavy chain 1 (FTH1), mouse heart (mouse (endogenous in heart tissue)) (UniProt P09528). Briefly: co-IP; heart tissue of control mice and mice treated with DOX with or without PrA; n = 3 per group.

B1: NCOA4, mouse heart (protein, UniProt Q5U4H9 1-625)
chain: MNTSLEQSGCYSNRETLLRCSDARRELELAIGGVLRAEQQIKDNLREVKAQIHSCISRHLECLRSREVWLNEQVDLIYQLKEETLQQQAQQLYWLMGQFNCLIHQLEYTQNKDLANQVSVCLERLGSLALKPEDSTVLLFEADTSALRQTITTFGSLKTIQIPEHLMAHASSSSIGPFLEKRGYIQVPEQKSASSGTAVSLSEWLLVSKPAIGLQAPYVPSTNPQDWLIPKQTSENSQTSARACSFFSDAWGNLKGLENWLLNSHQQEIAGKPSSSKCNSHCSTSSFSPEAEKAEDVELLDQDELDLSDWLVTPQEPCELEKPVDGSWETSEKFKLLFQVFREPYNVSDWLVKPDSCTNCQGNQPRGVEIENLGNLKCLNDHLEAKKSVSVPGATISDGWLAQNHQDTWKVEEVCKANEPCTSFAECVCDDNCEKEAMYKWLLKKGGKDKNGMPMEPKSEPEKHRESLTLWLCPSRNELTEQAKAPKAMAPARIADSFHVIKNSSLSEWLMGPTCKGGPKDVPNTEERAGKEMLQSSMATSWCPFNTADWVLPGKKVGSLSQFPSGEDKWLLRKKAQEAFLNSPLQEERNFRPDCYGLPAVCDLFACMQLKVDKEKWLYRTPLQM
Regarding B1, the binding entry is reported as “binds”.
